Results as given in paper PMC11207971.
No constants are given. Whether binding was seen depends on the method and setting. Binding seen in cells or lysates may run through a third protein. Binding calls can cover weak binding; strength is not graded here.

Assays:
[1] = molecular target: LHCA3 (Chlamydomonas reinhardtii (endogenous in thylakoids)); assay: cross-linking; DSS (DSS-H12 and DSS-D12, equimolar) added to isolated thylakoid membranes of wild-type 4a+ (1.5 mg chl/mL, 5 mM HEPES-KOH pH 7.5), 30 min at room temperature in the dark, quenched with Tris-HCl; then α-DDM solubilization, sucrose density gradient, SDS-PAGE, in-gel digestion …; crosslinked peptides found with XiSearch, MaxQuant, Merox, Mass Spec Studio, FDR 0.05
[2] = molecular target: LHCA5 (Chlamydomonas reinhardtii (endogenous in thylakoids)); assay: as above

binding [1] | binding [2] | Binder
binds |  | PSAK (protein, UniProt P14225 27-113) DGFIGSSTNLIMVASTTATLAAARFGLAPTVKKNTTAGLKLVDSKNSAGVISNDPAGFTIVDVLAMGAAGHGLGVGIVLGLKGIGAL
binds | binds | LHCSR3 (protein, UniProt P0DO18 46-259) EDVFAYTKNLPGVTAPFEGVFDPAGFLATASIKDVRRWRESEITHGRVAMLAALGFVVGEQLQDFPLFFNWDGRVSGPAIYHFQQIGQGFWEPLLIAIGVAESYRVAVGWATPTGTGFNSLKDDYEPGDLGFDPLGLKPTDPEELKVMQTKELNNGRLAMIAIAAFVAQELVEQTEIFEHLALRFEKEAILELDDIERDLGLPVTPLPDNLKSL
